Measurements taken from PubChem BioAssay AID540276 (National Center for Advancing Translational Sciences (NCATS), 2011).
In all, about 300,000 compounds went through this assay and about 5,400 (1.8%) were called active. This list was built around the results that the source calls inconclusive (neither active nor inactive); the mix of calls is not that of the screen. Calls follow the shape of the full dose curve; tested in HEK293 cells. A potency beside an inconclusive call is a rough fit, not a confirmed value.

Assay: qHTS for inhibitors of binding or entry into cells for Marburg Virus
Conditions: Marburg virus pseudotyped entry inhibition, cell reporter; activity change, negative = inhibition: at 37.8 µM (top of the series) unless noted
% is scaled to controls: 0 for no effect and ±100 for the full control effect; potency is read from the fitted curve at half-maximal effect.

SMILES | Potency | activity change, negative = inhibition
O=C(COC(=O)c1ccc(Cl)nc1)Nc1cc(S(=O)(=O)N2CCOCC2)ccc1Cl | inconclusive: 0.126 µM [inhibitor, full curve, poor fit] | –
Cc1cc(C)nc(SCNC(=O)c2ccc(F)cc2)n1 | – | inactive: 1.12%
Cc1nc(Cl)sc1C(=O)Nc1ccc2ccccc2c1 | inconclusive: 9.2 µM [activator, partial curve] | –
COc1ccc(C2C(C(C)=O)=C(O)C(=O)N2c2nccs2)cc1OC (stereo not drawn) | inconclusive: 6.31 µM [inhibitor, single point] | –
COc1ccc2nc(SCC(=O)Nc3c(C)cccc3C)[nH]c2c1 | – | inactive: -8.72%
NS(=O)(=O)c1cc(C(=O)OCC(=O)N2CCOCC2)ccc1Cl | inconclusive: 3.55 µM [inhibitor, single point] | –
CCCC(=O)Nc1ccc2c(c1)nc1n2CCOC1 | inconclusive: 3.26 µM [activator, full curve, poor fit] | –
CS(=O)(=O)N1CCn2c1nc1ccccc12 | – | inactive: 12.3% [at 46.1 µM]
CC(C)OC(=O)c1ccc2nc3ccccc3nc2c1 | inconclusive: 10 µM [inhibitor, partial curve, poor fit] | –
O=C(Cc1ccc(Br)cc1)NNC(=O)Nc1ccc(Cl)cc1 | inconclusive: 0.316 µM [inhibitor, full curve, poor fit] | –
CCc1ccccc1NC(=S)NC1CC2CCCC(C1)N2Cc1cccs1 (stereo not drawn) | inconclusive: 6.51 µM [inhibitor, partial curve, poor fit] | –
CCc1cc2c(SCC(=O)NC(=O)c3cccn3C)ncnc2s1 | inconclusive: 35.5 µM [inhibitor, single point] | –
COc1ccc(-n2ncc3c(NCCN4CCOCC4)ncnc32)cc1 | – | inactive: 26%
COc1cccc2cc(-c3nnc(SCC(=O)Nc4nc(C)cs4)n3C)oc12 | inconclusive: 10.3 µM [inhibitor, partial curve, poor fit] | –
C=CCSC1=N/C(=C\c2cc(OCC)c(OC(C)=O)c([N+](=O)[O-])c2)C(=O)S1 | inconclusive: 0.562 µM [activator, single point] | –
Cc1ccc(N2CCN(S(=O)(=O)c3ccc(Cl)c4ccccc34)CC2)c(C)c1 | inconclusive: 35.5 µM [inhibitor, single point] | –
Cc1ccc(C)c(C(=O)O/N=C(\N)c2ccc(Br)cc2)c1 | inconclusive: 29.1 µM [inhibitor, single point] | –
Cc1ccccc1CN1[C@@H](c2ccccc2)COc2c(Cl)cccc2S1(=O)=O | inconclusive: 7.05 µM [inhibitor, full curve] | –
O=C(c1ccc(N2CCCCC2)c([N+](=O)[O-])c1)N(c1ccccn1)c1ccccn1 | inconclusive: 11.2 µM [inhibitor, partial curve, poor fit] | –
CC(C)(C)c1ccc(C(=O)NNc2cc(N3CCOCC3)nc(N3CCOCC3)n2)cc1 | – | inactive: -29% [at 14.2 µM]
COc1ccc(OC)c(C2C=C(c3ccc(C)c(C)c3)Nc3nnnn32)c1 (stereo not drawn) | inconclusive: 2.51 µM [inhibitor, full curve] | –
C[C@@H]1CC[C@H]2C(=O)N3[C@@H](CC[C@@H](C)[C@@H]3c3ccc(Br)cc3)C(=O)N2[C@H]1c1ccc(Br)cc1 | – | inactive: -15.4%

SMILES | Potency | activity change, negative = inhibition
Cc1cccc(Oc2nc(-c3ccccn3)nc3ccccc23)c1 | inconclusive: 14.1 µM [inhibitor, partial curve, poor fit] | –
O=C(CSc1nnnn1-c1cccc(C(=O)O)c1)NC(c1ccccc1)c1ccccc1 | inconclusive: 7.08 µM [activator, partial curve, poor fit] | –
Cc1cccc(C(=O)NNC(=O)c2cc3cc4ccccc4nc3s2)c1 | inconclusive: 12.6 µM [inhibitor, single point] | –
CCN(CC)C(=O)c1ccc(CS(=O)(=O)c2ccc(Br)cc2)cc1 | – | inactive: -0.508%
CCCCCNC(=O)c1cn(CC)c2cc(N3CCN(C)CC3)c(F)cc2c1=O | inconclusive: 35.5 µM [inhibitor, single point] | –
Cc1cc2cc(CN(Cc3ccco3)C(=O)C3CCCCC3)c(=O)[nH]c2cc1C | inconclusive: 35.5 µM [activator, partial curve, poor fit] | –
CCOC(=O)Cc1csc(NC(=O)C(C)(C)CC)n1 | – | inactive: 2.67%
COc1ccc(C2C(C(=O)N3CCCC3)c3cc(OC)c(OC)cc3C(=O)N2C)cc1 (stereo not drawn) | inconclusive: 18.3 µM [activator, single point] | –
Cc1csc(SCC(=O)Nc2ccccc2C)n1 | inconclusive: 35.5 µM [activator, single point] | –
COCC(C)OC(=O)c1c(N)n(CCCN2CCOCC2)c2nc3ccccc3nc12 (stereo not drawn) | inconclusive: 3.55 µM [activator, single point] | –
CN(C)/C=C\C(=C/C(=O)C(F)(F)F)Nc1ccccc1Oc1ccccc1 | inconclusive: 10 µM [inhibitor, partial curve, poor fit] | –
C=CCSc1nc2nc(C)cc(C)n2n1 | – | inactive: 1.34%
COc1ccc(C(=O)Nn2cnc3scc(-c4cccs4)c3c2=O)c(O)c1 | inconclusive: 2.51 µM [activator, full curve, poor fit] | –
CCOC(=O)C1CCN(C(=O)Nc2ccc3c(c2)nc(C)n3C)CC1 | – | inactive: 14.7%
O=C1NN(c2ccccc2)C(=O)C2C3C=CC(C4CC34)C12 (stereo not drawn) | – | inactive: 0.511%
O=C(O)COc1ccc(/C=N/NC(=O)c2cn(-c3ccccc3)nc2-c2ccccc2)cc1 | inconclusive: 35.5 µM [inhibitor, partial curve, poor fit] | –
COc1ccc(CCC(=O)NCCS(=O)(=O)N2CCN(c3ccccc3F)CC2)cc1 | – | inactive: 7.62%
CCCS(=O)(=O)c1c(S(=O)(=O)CCC)c2c(N)cccn2c1C(=O)c1ccc(F)cc1 | inconclusive: 14.1 µM [inhibitor, partial curve, poor fit] | –
CSc1nnc2c3c4c(sc3c(=O)n(-c3ccccc3)n12)CC(C)(C)OC4 | – | inactive: -0.428%
CCOC(=O)CCc1c(C)c(C#N)c2[nH]c3ccccc3n2c1=O | inconclusive: 35.5 µM [inhibitor, single point] | –
Cc1cccc(NC(=O)[C@@H]2CCCN2C(=O)OC(C)(C)C)c1 | inconclusive: 4.47 µM [activator, full curve] | –
